From paper PMC7264852, “Structural and Hydrodynamic Characterization of Dimeric Human Oligoadenylate Synthetase 2” (Biophysical Journal, 2020) come the findings set out here.

Test [1] addresses T1, His-tagged OAS2 (recombinant human 2′-5′-oligoadenylate synthetase 2, wild type) (human) (UniProt P29728).
T1 sequence: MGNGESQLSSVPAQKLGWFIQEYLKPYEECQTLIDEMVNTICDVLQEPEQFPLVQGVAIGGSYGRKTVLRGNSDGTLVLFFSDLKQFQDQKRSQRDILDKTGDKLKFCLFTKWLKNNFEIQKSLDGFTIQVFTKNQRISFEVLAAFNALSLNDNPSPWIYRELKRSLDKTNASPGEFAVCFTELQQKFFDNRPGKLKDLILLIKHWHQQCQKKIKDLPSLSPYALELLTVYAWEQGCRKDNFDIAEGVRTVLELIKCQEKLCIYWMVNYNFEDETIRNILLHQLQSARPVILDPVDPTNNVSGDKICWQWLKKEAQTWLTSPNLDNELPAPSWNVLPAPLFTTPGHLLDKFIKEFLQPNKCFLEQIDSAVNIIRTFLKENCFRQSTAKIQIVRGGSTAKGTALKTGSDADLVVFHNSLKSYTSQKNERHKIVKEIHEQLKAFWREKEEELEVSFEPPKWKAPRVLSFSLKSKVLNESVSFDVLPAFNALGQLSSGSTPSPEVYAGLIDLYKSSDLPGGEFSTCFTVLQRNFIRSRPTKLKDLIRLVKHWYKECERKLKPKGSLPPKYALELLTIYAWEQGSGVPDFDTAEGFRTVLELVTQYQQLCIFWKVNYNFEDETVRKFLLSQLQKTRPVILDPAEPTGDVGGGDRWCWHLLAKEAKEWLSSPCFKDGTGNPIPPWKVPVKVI
The test is described as follows: co-IP; HEK293T co-transfected with FLAG-OAS2 and HIS-OAS2; combined cytoplasmic and nuclear lysate; IP with anti-HIS (blot anti-FLAG) and the reciprocal IP with anti-FLAG (blot anti-HIS); protein A/G beads, 25 mM HEPES pH 7.2, 175 mM NaCl, 0.25% IGEPAL, 4°C.

For test [2], the target named is T2, FLAG-tagged OAS2 (recombinant human 2′-5′-oligoadenylate synthetase 2, wild type) (human) (UniProt P29728).
T2 sequence: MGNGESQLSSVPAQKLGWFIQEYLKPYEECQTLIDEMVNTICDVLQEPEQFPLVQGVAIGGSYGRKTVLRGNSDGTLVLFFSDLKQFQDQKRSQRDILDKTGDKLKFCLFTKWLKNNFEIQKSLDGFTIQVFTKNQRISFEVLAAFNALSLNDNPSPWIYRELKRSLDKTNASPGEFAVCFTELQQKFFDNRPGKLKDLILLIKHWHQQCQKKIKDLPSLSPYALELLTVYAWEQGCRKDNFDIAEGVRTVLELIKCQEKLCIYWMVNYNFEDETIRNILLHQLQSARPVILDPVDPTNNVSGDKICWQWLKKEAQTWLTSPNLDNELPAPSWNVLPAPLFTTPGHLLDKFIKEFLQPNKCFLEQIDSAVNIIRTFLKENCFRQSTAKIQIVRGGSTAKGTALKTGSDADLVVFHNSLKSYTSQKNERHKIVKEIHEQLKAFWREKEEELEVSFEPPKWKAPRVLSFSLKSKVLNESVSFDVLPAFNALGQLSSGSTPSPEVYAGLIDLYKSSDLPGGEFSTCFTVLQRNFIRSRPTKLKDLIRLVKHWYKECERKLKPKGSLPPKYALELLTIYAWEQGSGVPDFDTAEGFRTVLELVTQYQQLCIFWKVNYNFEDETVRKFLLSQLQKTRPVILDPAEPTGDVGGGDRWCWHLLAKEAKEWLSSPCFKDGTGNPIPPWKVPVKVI
The test is described as above.

No constants are given. Whether binding was seen depends on the method and setting. In cells and extracts the contact can be indirect. Some entries that bind do so weakly or less than the wild type. Tags and fused reporters may be left off the sequences shown.

B1: FLAG-tagged OAS2 (recombinant human 2′-5′-oligoadenylate synthetase 2, wild type) (enzyme, UniProt P29728-2 1-687, looked up)
chain: MGNGESQLSSVPAQKLGWFIQEYLKPYEECQTLIDEMVNTICDVLQEPEQFPLVQGVAIGGSYGRKTVLRGNSDGTLVLFFSDLKQFQDQKRSQRDILDKTGDKLKFCLFTKWLKNNFEIQKSLDGFTIQVFTKNQRISFEVLAAFNALSLNDNPSPWIYRELKRSLDKTNASPGEFAVCFTELQQKFFDNRPGKLKDLILLIKHWHQQCQKKIKDLPSLSPYALELLTVYAWEQGCRKDNFDIAEGVRTVLELIKCQEKLCIYWMVNYNFEDETIRNILLHQLQSARPVILDPVDPTNNVSGDKICWQWLKKEAQTWLTSPNLDNELPAPSWNVLPAPLFTTPGHLLDKFIKEFLQPNKCFLEQIDSAVNIIRTFLKENCFRQSTAKIQIVRGGSTAKGTALKTGSDADLVVFHNSLKSYTSQKNERHKIVKEIHEQLKAFWREKEEELEVSFEPPKWKAPRVLSFSLKSKVLNESVSFDVLPAFNALGQLSSGSTPSPEVYAGLIDLYKSSDLPGGEFSTCFTVLQRNFIRSRPTKLKDLIRLVKHWYKECERKLKPKGSLPPKYALELLTIYAWEQGSGVPDFDTAEGFRTVLELVTQYQQLCIFWKVNYNFEDETVRKFLLSQLQKTRPVILDPAEPTGDVGGGDRWCWHLLAKEAKEWLSSPCFKDGTGNPIPPWKVPVKVI
notes: human 2′-5′-oligoadenylate synthetase 2 (OAS2); residues D408, D410, D481, C668, F669, K670 are named; The N-terminal position of FLAG is stated only for the CAFAKA mutant; also called FLAG-OAS2; wild-type OAS2; source: HEK293T, transfected (pcDNA3); in lysate for the co-immunoprecipitation
Regarding B1, in test [1], the binding entry was “binds”.

B2: His-tagged OAS2 (recombinant human 2′-5′-oligoadenylate synthetase 2, wild type) (enzyme, UniProt P29728-2 1-687)
chain: MGNGESQLSSVPAQKLGWFIQEYLKPYEECQTLIDEMVNTICDVLQEPEQFPLVQGVAIGGSYGRKTVLRGNSDGTLVLFFSDLKQFQDQKRSQRDILDKTGDKLKFCLFTKWLKNNFEIQKSLDGFTIQVFTKNQRISFEVLAAFNALSLNDNPSPWIYRELKRSLDKTNASPGEFAVCFTELQQKFFDNRPGKLKDLILLIKHWHQQCQKKIKDLPSLSPYALELLTVYAWEQGCRKDNFDIAEGVRTVLELIKCQEKLCIYWMVNYNFEDETIRNILLHQLQSARPVILDPVDPTNNVSGDKICWQWLKKEAQTWLTSPNLDNELPAPSWNVLPAPLFTTPGHLLDKFIKEFLQPNKCFLEQIDSAVNIIRTFLKENCFRQSTAKIQIVRGGSTAKGTALKTGSDADLVVFHNSLKSYTSQKNERHKIVKEIHEQLKAFWREKEEELEVSFEPPKWKAPRVLSFSLKSKVLNESVSFDVLPAFNALGQLSSGSTPSPEVYAGLIDLYKSSDLPGGEFSTCFTVLQRNFIRSRPTKLKDLIRLVKHWYKECERKLKPKGSLPPKYALELLTIYAWEQGSGVPDFDTAEGFRTVLELVTQYQQLCIFWKVNYNFEDETVRKFLLSQLQKTRPVILDPAEPTGDVGGGDRWCWHLLAKEAKEWLSSPCFKDGTGNPIPPWKVPVKVI
For B2, the binding entry in test [2] is “binds”.
